This note sets out measurements from the supplement of paper PMC12542422.

Structures are written as SMILES. Where a name gives a salt, the structure may show the parent alone. ± gives the standard deviation of the averaged measurements. The list shows a part of the results. These are raw signals, not scaled to a control.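 HeLa cells imaged for ribosome-assembly readouts (ENP1 staining with or without export block, or inducible tagged ribosomal protein reporters); machine learning classified each cell's signal location against solvent (DMSO) controls. Hits exceeded the DMSO false-positive mean by five standard deviations, then were visually confirmed; three biological replicates.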

This assay deals with HeLa K (ENP1 immunofluorescence, no LMB). The experiment in a line: fraction of cells with nucleolar or nucleolar/nucleoplasmic ENP1 signal (MainHitrate); higher = more cells with nucleolar/nuclear readout signal (for ENP1 -LMB: less RNAPI inhibition; for +LMB ENP1 and RP reporters: stronger nuclear/nucleolar retention, i.e. ribosome biogenesis defect). The following applies: concentration: 1 µM; treatment time: 6 h; ENP1 -LMB; leptomycin B: none.
Turning to `CCCSc1nc(N[C@@H]2C[C@H]2c2ccc(F)c(F)c2)c2nnn([C@@H]3C[C@H](OCCO)[C@@H](O)[C@H]3O)c2n1` [Ticagrelor], the fraction stood at 0.986 ± 0.025. Next, `CC[C@H]1OC(=O)[C@H](C)[C@@H](O[C@H]2C[C@@](C)(OC)[C@@H](O)[C@H](C)O2)[C@H](C)[C@@H](O[C@@H]2O[C@H](C)C[C@H](N(C)C)[C@H]2O)[C@](C)(OC)C[C@@H](C)C(=O)[C@H](C)[C@@H](O)[C@]1(C)O` [Clarithromycin (Biaxin, Klacid)]: 0.993 ± 0.012. `CO[C@H]1/C=C/O[C@@]2(C)Oc3c(C)c(O)c4c(O)c(c(/C=N/N5CCN(C6CCCC6)CC5)c(O)c4c3C2=O)NC(=O)/C(C)=C\C=C\[C@H](C)[C@H](O)[C@@H](C)[C@@H](O)[C@@H](C)[C@H](OC(C)=O)[C@@H]1C` [Rifapentine (Priftin)] displayed a fraction of 0.9991 ± 0.0015. Turning to `CNCCc1ccccn1` [Betahistine 2HCl], the fraction was 0.99 ± 0.018. As for `C[C@@H](CN1CC(=O)NC(=O)C1)N1CC(=O)NC(=O)C1` [Dexrazoxane Hydrochloride], the figure is 0.9972 ± 0.0048.

Turning to `CC(=O)Nc1c(I)c(C(=O)N[C@H]2C(O)O[C@H](CO)[C@@H](O)[C@@H]2O)c(I)c(N(C)C(C)=O)c1I` (some centres undefined) [Metrizamide], the fraction was 0.993 ± 0.012. As for `Cc1nnc(NS(=O)(=O)c2ccc(N)cc2)s1` [Sulfamethizole (Proklar)], the figure is 0.9951 ± 0.0085; as for `COc1ccc2c(c1)c(CC(=O)OCC(=O)O)c(C)n2C(=O)c1ccc(Cl)cc1` [Acemetacin (Emflex)], 0.987 ± 0.023. Next, `CCN(CC)CCOC(=O)C(c1ccccc1)c1ccccc1` [Adiphenine HCl]: 0.9956 ± 0.0077; `CCN(CC)CCNC(=O)c1c(C)[nH]c(/C=C2\C(=O)Nc3ccc(F)cc32)c1C` [Sunitinib Malate (Sutent)]: 0.9984 ± 0.0027; `Oc1c(Cl)cc(Cl)c2cccnc12` [Chloroxine]: 0.9943 ± 0.0099. Compound `N#Cc1ccc(C(c2ccc(C#N)cc2)n2cncn2)cc1` [Letrozole] had a fraction of 0.9976 ± 0.0042.

In the case of `Cc1ccc(N(CC2=NCCN2)c2cccc(O)c2)cc1` [Phentolamine mesilate], the fraction stood at 0.9948 ± 0.0089.

Compound `CC(=O)[C@H]1CC[C@H]2[C@@H]3CC=C4C[C@@H](O)CC[C@]4(C)[C@H]3CC[C@]12C` [Pregnenolone] registered a fraction of 0.993 ± 0.012.

In turn, `Nc1ccc(S(N)(=O)=O)cc1` [Sulfanilamide] displayed a fraction of 0.9983 ± 0.0029. `CC[C@]1(O)C[C@H]2CN(CCc3c([nH]c4ccccc34)[C@@](C(=O)OC)(c3cc4c(cc3OC)N(C=O)[C@H]3[C@@](O)(C(=O)OC)[C@H](OC(C)=O)[C@]5(CC)C=CCN6CC[C@]43[C@@H]65)C2)C1` [Vincristine]: the fraction is 0.9975 ± 0.0044. In turn, `OCC(CO)N[C@H]1C[C@](O)(CO)[C@@H](O)[C@H](O)[C@H]1O` [Voglibose] returned a fraction of 0.969 ± 0.054. Next, `O=C(c1ccccc1)c1ccc2n1CCC2C(=O)O` (centres undefined) [Ketorolac (Toradol)]: 0.9982 ± 0.0031; `CCC(=O)OCC(=O)[C@@]1(OC(=O)CC)[C@@H](C)C[C@H]2[C@@H]3CCC4=CC(=O)C=C[C@]4(C)[C@@]3(F)[C@@H](O)C[C@@]21C` [Betamethasone Dipropionate (Diprolene)]: 0.999 ± 0.0017; `CC[C@H]1OC(=O)C[C@@H](O)[C@H](C)[C@@H](O[C@@H]2O[C@H](C)[C@@H](O[C@H]3C[C@@](C)(O)[C@@H](O)[C@H](C)O3)[C@H](N(C)C)[C@H]2O)[C@@H](CC=O)C[C@@H](C)C(=O)/C=C/C(C)=C/[C@@H]1CO[C@@H]1O[C@H](C)[C@@H](O)[C@@H](OC)[C@H]1OC` [Tylosin tartrate]: 0.991 ± 0.016.

In turn, `CN(C)[C@@H]1C(O)=C(C(=O)NCN2CCCC2)C(=O)[C@@]2(O)C(O)=C3C(=O)c4c(O)cccc4[C@@](C)(O)[C@H]3C[C@@H]12` [Rolitetracycline] gave a fraction of 0.95 ± 0.087.

Compound `Cc1ncc([N+](=O)[O-])n1CC(O)CCl` (centres undefined) [Ornidazole] yielded a fraction of 0.984 ± 0.027. Next, `O=c1[nH]c(=O)n([C@H]2C[C@H](O)[C@@H](CO)O2)cc1I` [Idoxuridine]: 0.99 ± 0.018; `CC[C@H](C)C(=O)O[C@H]1C[C@H](O)C=C2C=C[C@H](C)[C@H](CC[C@@H](O)C[C@@H](O)CC(=O)O)[C@H]21` [Pravastatin sodium]: 0.988 ± 0.021. Next, `C#CCC(Cc1cnc2nc(N)nc(N)c2n1)c1ccc(C(=O)N[C@@H](CCC(=O)O)C(=O)O)cc1` (some centres undefined) [Pralatrexate (Folotyn)]: 0.9984 ± 0.0028; `CN(C(=O)CN(CCO)CC(=O)N(C)C(C)(C)Cc1ccccc1)C(C)(C)Cc1ccccc1` [Oxethazaine]: 0.907 ± 0.16.

On to `Nc1ccn([C@H]2CC[C@@H](CO)O2)c(=O)n1` [Zalcitabine], for which the fraction was determined as 0.9986 ± 0.0024. As for `Cc1[nH]c(=O)c(C#N)cc1-c1ccncc1` [Milrinone (Primacor)], the figure is 0.991 ± 0.016.

In turn, `C[C@]12CCC3=C4CCC(=O)C=C4CC[C@H]3[C@@H]1CC[C@@]2(O)CC#N` [Dienogest] registered a fraction of 0.9979 ± 0.0037.

`CN(C)CCCOc1nn(Cc2ccccc2)c2ccccc12` [Benzydamine Hydrochloride] came in with a fraction of 0.991 ± 0.016. On to `CS(=O)(=O)OCCCCOS(C)(=O)=O` [Busulfan (Myleran, Busulfex)], for which the fraction stood at 0.997 ± 0.0052.

`CS(=O)(=O)c1ccc([C@@H](O)[C@@H](CO)NC(=O)C(Cl)Cl)cc1` [Thiamphenicol (Thiophenicol)] yielded a fraction of 0.991 ± 0.016.

For `CCC[C@@H]1C[C@@H](C(=O)N[C@@H]([C@H]2O[C@H](SC)[C@H](OP(=O)(O)O)[C@@H](O)[C@H]2O)[C@H](C)Cl)N(C)C1` [Clindamycin phosphate], the fraction is 0.993 ± 0.011.

Turning to `NC(=O)c1cccnc1` [Nicotinamide (Niacinamide)], the fraction came out at 0.989 ± 0.019. In turn, `NC[C@H]1O[C@H](O[C@H]2[C@H](O)[C@@H](O[C@H]3O[C@H](CO)[C@@H](O)[C@H](N)[C@H]3O)[C@H](N)C[C@@H]2N)[C@H](N)C[C@@H]1O` [Tobramycin] had a fraction of 0.9946 ± 0.0093. As for `COc1ccccc1OCC(O)CN1CCN(CC(=O)Nc2c(C)cccc2C)CC1` (centres undefined) [Ranolazine (Ranexa)], the figure is 0.994 ± 0.011; as for `CC(COc1ccccc1)N(CCCl)Cc1ccccc1` (centres undefined) [Phenoxybenzamine HCl], 0.994 ± 0.011; as for `CN1[C@@H]2CC[C@H]1C[C@@H](OC(c1ccccc1)c1ccccc1)C2` [Benztropine mesylate], 0.994 ± 0.011. As for `C#C[C@]1(OC(C)=O)CC[C@H]2[C@@H]3CCC4=C[C@@H](OC(C)=O)CC[C@@H]4[C@H]3CC[C@@]21C` [Ethynodiol diacetate], the figure is 0.98 ± 0.034.
